# Measured values as given in article PMC5996148.
# This is one part of the list.
# Tests used:
# Assay in all cases: protein microarray (ProtoArray v5.0), streptavidin-Alexa Fluor 647
# Conditions in all cases: 3'-biotin; 20 mM Tris (pH 7.5), 5 mM MgCl2, 100 mM KCl, 0.1% Tween-20, A/T-rich and random oligonucleotide blockers; temperature not stated; high values mean tight binding
# ATE1 (human) = test system: ATE1 (human)
# ATF2 (human) = test system: ATF2 (human)
# ATF3 (human) = test system: ATF3 (human)
# ATG10 (human) = test system: ATG10 (human)
# ATG12 (human) = test system: ATG12 (human)
# ATG4A (human) = test system: ATG4A (human)
# ATG4D (human) = test system: ATG4D (human)
# ATG7 (human) = test system: ATG7 (human)
# [1] = test system: ATP synthase-coupling factor 6, mitochondrial (human)
# [2] = test system: ATP-binding cassette sub-family G member 1 (human)
sequence,measurement,setting,value
GGGAGGCTGAGGCAGG [G4-1 biotinylated (PQS2)],binding signal,ATE1 (human),-0.295 z-score
same,binding signal,ATF2 (human),-0.347 z-score
same,binding signal,ATF3 (human),-0.304 z-score
same,binding signal,ATG10 (human),-0.343 z-score
same,binding signal,ATG12 (human),-0.289 z-score
same,binding signal,ATG4A (human),-0.367 z-score
same,binding signal,ATG4D (human),-0.335 z-score
same,binding signal,ATG7 (human),-0.309 z-score
same,binding signal,[1],-0.312 z-score
same,binding signal,[2],-0.264 z-score

# 2 records picked at random from the list so far:
sequence,measurement,setting,value
GGGAGGCTGAGGCAGG [G4-1 biotinylated (PQS2)],binding signal,ATG10 (human),-0.343 z-score
same,binding signal,[2],-0.264 z-score
